From PubChem BioAssay AID2685 (National Center for Advancing Translational Sciences (NCATS), 2010)
Out of some 320,000 compounds screened, about 2,100 (0.66%) were called active. This list was built around the results that the source calls inconclusive (neither active nor inactive); the mix of calls is not that of the screen. Calls come from the whole dose curve; as a rule, active = well fitted inhibition curve with a large enough effect in the signal ratio, with a control signal flat (not every such curve was filed as active); inconclusive = small, poorly fitted or top-dose-only effect, or effect the other way, or a change in a side signal; inactive = flat fitted curve, though single readings scatter; the % refers to the signal ratio. Potencies beside an inconclusive call are fits to weak or partial responses and may not hold up.

Test: qHTS Assay for Lipid Storage Modulators in Drosophila S3 Cells
Conditions: BODIPY lipid droplet fluorescence, 18-24 h, cells fed with added oleic acid; lipid storage change, negative = inhibition: at 46.1 µM (top of the series) unless noted
Method in brief: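 Laser-scanning cytometry quantifies lipid droplet accumulation (500–530 nm total intensity; droplet/cell object ratio) in oleic acid-fed (400 uM added) Drosophila S3 cells treated with a concentration series. 20 uM Triacsin C defined 100% inhibition.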
% is set by controls: 0 for no effect and ±100 for the full control effect; potency is the fitted concentration of half-maximal effect.

Row | SMILES | Potency | lipid storage change, negative = inhibition
1 | Cc1sc2ncnc(NCCCN3CCCC3=O)c2c1C | inconclusive: 13 µM [activator, partial curve, poor fit] | –
2 | COC(=O)C1=C(N)Oc2cc(C)n(CCN3CCOCC3)c(=O)c2C1c1cccnc1 (stereo not given) | – | inconclusive: 7.44%
3 | Oc1cccc(/C=N/Nc2ncnc3c2ncn3Cc2ccccc2)c1 | – | inconclusive: 12.1%
4 | Cc1cccc(NC(=S)N(CCCN2CCOCC2)Cc2ccccn2)c1 | inconclusive: 13 µM [activator, partial curve, poor fit] | –
5 | CCOC(=O)c1c(NC(=O)CN2C(=O)NC3(CCCCC3C)C2=O)sc(C)c1C (stereo not given) | – | inactive: 1.6%
6 | C=CCNC(=S)N1CCC(C(=O)c2ccc3c(c2)OCCO3)CC1 | – | inconclusive: -0.111%
7 | CCN(CC)S(=O)(=O)c1ccc(N2CCN(C)CC2)c(NC(=O)c2cc(=O)c3ccccc3o2)c1 | – | inconclusive: -118%
8 | CCS(=O)(=O)Nc1ccc(C2=NN(S(=O)(=O)c3ccc(F)cc3)C(c3ccco3)C2)cc1 (stereo not given) | – | inactive: -3.66%
9 | CCN(CC)S(=O)(=O)c1cc(NC(=O)[C@@H](NC(N)=O)C(C)C)ccc1C | inconclusive: 29.1 µM [rising, single point] | –
10 | FC(F)(F)c1cc(-c2ccco2)nc2ncnn12 | – | inconclusive: -18.2%
11 | S=C(NCc1ccc(Cl)cc1)Nc1ccccc1 | – | inconclusive: 7.73%
12 | CN(CC(=O)Nc1c(Cl)cccc1Cl)C(=O)c1cc2ccccc2cc1O | – | inconclusive
13 | O=C(/C=C/c1ccc(Cl)cc1)c1cccnc1 | inconclusive: 4.61 µM [falling, partial curve] | –
14 | CCN1CCN(C(=O)CN(Cc2ccccc2)S(C)(=O)=O)CC1 | – | inconclusive: -12.7%
15 | CNC(=O)CCC(=O)Nc1ccc(C)cc1 | inconclusive: 4.11 µM [falling, single point] | –
16 | COc1ccc(NC(=O)CN(C)C(=O)c2cc(-c3ccco3)nc3ccccc23)cc1 | – | inconclusive: -4.36%
17 | Cc1cccc(C(C)(C)C)c1OCCCCN1CCCC1 | inconclusive: 29.1 µM [cytotoxic, single point] | –
18 | CCOc1ccc(-c2c(C(=O)N/N=C/C3CCCCC3)nnn2-c2nonc2N)cc1 | inconclusive: 29.1 µM [activator, single point] | –
19 | CC1CCN(c2nc3c(=O)[nH]c(N)nc3n2[C@@H]2O[C@H](CO)[C@@H](O)[C@H]2O)CC1 | – | inconclusive: 123%
20 | O=C(Nc1ccc2c(c1)N(S(=O)(=O)c1cccs1)CCC2)c1c(F)cccc1Cl | inconclusive: 11.6 µM [activator, partial curve, poor fit] | –

Looked up above:
Value of COC(=O)C1=C(N)Oc2cc(C)n(CCN3CCOCC3)c(=O)c2C1c1cccnc1 (stereo not given) under lipid storage change, negative = inhibition: inconclusive: 7.44%
Value of CNC(=O)CCC(=O)Nc1ccc(C)cc1 under Potency: inconclusive: 4.11 µM [falling, single point]
